The source of these data is article PMC13107559.

The chains behind the UniProt entries cited, without tags or fusion partners.
UniProt Q09XV5: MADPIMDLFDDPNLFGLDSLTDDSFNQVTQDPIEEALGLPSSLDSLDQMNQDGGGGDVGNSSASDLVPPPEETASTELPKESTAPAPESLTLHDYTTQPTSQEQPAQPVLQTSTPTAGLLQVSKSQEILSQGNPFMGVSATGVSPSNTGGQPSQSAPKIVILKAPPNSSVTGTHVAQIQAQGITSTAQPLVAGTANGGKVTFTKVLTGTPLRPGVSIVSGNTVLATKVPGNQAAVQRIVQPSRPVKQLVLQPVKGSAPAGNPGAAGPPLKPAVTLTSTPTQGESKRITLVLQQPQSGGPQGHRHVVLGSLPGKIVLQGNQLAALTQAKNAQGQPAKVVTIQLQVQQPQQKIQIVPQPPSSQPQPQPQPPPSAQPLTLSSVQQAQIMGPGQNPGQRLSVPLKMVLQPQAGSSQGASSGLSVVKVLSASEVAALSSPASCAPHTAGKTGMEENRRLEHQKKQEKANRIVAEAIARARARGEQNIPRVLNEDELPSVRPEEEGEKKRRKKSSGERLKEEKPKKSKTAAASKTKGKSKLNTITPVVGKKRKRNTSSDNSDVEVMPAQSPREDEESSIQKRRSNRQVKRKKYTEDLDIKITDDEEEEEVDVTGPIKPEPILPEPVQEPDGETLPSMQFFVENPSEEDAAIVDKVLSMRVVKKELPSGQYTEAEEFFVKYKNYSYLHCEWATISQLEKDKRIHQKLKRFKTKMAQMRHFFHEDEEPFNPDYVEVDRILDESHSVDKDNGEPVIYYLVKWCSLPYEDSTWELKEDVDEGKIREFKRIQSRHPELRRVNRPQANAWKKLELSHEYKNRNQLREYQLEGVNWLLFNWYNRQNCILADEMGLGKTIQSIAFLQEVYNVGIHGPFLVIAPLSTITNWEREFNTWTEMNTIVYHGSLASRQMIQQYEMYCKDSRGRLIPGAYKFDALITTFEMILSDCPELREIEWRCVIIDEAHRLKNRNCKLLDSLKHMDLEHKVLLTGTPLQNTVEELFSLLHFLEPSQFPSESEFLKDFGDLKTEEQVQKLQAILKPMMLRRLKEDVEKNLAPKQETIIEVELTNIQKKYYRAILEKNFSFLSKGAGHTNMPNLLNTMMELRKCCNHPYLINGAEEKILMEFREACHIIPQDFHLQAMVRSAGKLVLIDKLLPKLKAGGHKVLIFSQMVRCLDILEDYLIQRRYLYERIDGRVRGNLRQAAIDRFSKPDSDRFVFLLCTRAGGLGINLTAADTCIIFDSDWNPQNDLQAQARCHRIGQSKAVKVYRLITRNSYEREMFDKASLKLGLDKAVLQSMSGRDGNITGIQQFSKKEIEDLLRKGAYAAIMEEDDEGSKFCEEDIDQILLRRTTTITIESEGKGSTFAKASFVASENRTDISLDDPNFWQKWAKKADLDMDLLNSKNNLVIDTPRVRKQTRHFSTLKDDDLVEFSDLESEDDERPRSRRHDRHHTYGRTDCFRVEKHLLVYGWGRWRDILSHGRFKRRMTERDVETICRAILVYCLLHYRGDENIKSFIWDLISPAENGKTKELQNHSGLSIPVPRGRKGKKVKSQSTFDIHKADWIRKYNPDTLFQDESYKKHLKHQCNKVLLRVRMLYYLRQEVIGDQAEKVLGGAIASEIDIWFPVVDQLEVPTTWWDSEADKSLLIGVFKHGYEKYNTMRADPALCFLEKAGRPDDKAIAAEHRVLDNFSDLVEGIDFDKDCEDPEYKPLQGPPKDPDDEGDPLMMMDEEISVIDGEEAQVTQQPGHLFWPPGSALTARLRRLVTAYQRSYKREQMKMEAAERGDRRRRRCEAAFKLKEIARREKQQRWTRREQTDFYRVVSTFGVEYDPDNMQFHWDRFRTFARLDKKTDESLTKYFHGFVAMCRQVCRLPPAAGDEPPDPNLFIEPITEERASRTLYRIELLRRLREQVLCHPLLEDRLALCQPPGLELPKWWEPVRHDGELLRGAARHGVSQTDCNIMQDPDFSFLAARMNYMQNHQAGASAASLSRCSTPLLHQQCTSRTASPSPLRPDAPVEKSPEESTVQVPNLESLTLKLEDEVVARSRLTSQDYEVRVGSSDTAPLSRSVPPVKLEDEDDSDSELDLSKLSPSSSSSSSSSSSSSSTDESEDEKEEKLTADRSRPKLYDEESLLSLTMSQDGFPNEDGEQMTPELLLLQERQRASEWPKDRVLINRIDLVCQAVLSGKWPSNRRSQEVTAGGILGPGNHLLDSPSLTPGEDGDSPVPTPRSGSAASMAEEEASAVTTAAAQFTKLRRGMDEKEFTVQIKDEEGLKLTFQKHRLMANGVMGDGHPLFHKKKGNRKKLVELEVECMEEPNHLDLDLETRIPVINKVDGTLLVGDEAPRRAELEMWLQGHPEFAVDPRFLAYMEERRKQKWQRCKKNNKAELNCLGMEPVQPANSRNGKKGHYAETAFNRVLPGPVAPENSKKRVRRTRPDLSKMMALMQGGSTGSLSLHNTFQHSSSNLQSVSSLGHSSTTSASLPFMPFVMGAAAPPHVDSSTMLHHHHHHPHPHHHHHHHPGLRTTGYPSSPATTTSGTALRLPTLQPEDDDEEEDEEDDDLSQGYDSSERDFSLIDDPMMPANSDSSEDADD
UniProt Q3TKT4: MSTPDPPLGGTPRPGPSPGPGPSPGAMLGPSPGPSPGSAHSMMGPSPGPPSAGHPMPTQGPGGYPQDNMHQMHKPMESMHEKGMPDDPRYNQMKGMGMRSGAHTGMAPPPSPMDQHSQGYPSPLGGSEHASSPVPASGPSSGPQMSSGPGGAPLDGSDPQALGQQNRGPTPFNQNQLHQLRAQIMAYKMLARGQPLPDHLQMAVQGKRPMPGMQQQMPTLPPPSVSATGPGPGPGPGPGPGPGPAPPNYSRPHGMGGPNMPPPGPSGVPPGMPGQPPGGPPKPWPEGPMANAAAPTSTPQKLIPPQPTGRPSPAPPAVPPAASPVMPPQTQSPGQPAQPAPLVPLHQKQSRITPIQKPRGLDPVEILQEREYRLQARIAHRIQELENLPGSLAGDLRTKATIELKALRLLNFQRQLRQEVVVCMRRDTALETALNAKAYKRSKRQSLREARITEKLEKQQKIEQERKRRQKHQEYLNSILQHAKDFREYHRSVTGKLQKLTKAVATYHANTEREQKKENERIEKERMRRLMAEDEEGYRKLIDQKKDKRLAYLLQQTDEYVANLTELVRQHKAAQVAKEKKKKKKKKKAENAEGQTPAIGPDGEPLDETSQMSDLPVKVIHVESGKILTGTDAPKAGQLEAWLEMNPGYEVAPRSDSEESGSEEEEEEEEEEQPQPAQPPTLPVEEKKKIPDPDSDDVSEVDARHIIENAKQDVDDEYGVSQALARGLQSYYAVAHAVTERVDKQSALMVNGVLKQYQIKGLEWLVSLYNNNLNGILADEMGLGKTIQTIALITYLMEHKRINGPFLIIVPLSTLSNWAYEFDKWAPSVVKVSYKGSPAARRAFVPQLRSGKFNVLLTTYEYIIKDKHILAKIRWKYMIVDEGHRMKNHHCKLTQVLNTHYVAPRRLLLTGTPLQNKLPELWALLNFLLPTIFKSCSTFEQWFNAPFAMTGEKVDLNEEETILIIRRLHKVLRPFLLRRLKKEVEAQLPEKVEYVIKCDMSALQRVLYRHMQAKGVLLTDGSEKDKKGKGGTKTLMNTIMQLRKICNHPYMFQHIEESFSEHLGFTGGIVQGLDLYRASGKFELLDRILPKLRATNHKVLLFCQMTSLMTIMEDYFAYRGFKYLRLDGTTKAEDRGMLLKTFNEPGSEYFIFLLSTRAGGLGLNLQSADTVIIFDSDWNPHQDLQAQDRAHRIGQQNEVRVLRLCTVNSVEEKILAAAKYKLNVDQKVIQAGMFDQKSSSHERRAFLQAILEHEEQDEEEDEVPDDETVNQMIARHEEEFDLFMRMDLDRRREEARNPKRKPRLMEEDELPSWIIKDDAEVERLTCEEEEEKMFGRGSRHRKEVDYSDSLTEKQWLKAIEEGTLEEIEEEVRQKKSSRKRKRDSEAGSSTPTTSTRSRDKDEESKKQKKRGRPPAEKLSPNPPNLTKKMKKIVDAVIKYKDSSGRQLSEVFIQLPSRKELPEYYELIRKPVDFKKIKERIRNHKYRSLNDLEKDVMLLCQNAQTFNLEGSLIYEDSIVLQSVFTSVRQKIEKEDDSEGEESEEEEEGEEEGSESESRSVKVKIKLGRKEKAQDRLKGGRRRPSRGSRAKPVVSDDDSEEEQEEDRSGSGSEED
UniProt Q91ZW3: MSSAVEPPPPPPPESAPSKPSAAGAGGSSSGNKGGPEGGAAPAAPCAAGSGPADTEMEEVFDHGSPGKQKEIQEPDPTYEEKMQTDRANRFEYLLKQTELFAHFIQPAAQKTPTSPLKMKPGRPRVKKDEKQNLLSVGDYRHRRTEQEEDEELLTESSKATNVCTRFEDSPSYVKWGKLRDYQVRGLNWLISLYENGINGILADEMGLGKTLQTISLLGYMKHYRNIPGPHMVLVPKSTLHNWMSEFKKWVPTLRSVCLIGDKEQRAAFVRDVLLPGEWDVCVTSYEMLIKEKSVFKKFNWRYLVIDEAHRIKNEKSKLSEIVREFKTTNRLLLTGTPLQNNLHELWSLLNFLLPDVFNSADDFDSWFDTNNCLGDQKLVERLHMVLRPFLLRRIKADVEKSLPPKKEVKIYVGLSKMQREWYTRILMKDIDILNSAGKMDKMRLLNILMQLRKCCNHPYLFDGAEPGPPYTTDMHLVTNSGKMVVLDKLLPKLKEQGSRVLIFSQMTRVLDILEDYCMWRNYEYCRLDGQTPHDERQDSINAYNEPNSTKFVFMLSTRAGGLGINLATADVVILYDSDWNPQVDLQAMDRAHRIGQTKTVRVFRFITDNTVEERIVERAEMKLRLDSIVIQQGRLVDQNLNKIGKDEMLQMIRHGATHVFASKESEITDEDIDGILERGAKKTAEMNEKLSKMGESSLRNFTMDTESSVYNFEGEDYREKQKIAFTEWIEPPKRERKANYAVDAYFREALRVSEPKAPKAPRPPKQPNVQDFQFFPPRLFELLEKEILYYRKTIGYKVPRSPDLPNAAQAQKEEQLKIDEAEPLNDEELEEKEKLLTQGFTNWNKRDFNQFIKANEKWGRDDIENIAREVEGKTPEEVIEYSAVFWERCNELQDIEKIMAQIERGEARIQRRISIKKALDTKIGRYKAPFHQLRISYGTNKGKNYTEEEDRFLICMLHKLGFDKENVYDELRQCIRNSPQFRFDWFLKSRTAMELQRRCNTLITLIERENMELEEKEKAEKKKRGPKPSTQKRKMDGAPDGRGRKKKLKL

No constants are given. Whether binding was seen depends on the method and setting. Binding seen in cells or lysates may run through a third protein. Some binding calls cover weakened binding; strength is not graded here.

The target in assay [1] is T1, CCCTC-binding factor (CTCF) (mouse (endogenous in mESCs)) (UniProt Q61164).
T1 sequence: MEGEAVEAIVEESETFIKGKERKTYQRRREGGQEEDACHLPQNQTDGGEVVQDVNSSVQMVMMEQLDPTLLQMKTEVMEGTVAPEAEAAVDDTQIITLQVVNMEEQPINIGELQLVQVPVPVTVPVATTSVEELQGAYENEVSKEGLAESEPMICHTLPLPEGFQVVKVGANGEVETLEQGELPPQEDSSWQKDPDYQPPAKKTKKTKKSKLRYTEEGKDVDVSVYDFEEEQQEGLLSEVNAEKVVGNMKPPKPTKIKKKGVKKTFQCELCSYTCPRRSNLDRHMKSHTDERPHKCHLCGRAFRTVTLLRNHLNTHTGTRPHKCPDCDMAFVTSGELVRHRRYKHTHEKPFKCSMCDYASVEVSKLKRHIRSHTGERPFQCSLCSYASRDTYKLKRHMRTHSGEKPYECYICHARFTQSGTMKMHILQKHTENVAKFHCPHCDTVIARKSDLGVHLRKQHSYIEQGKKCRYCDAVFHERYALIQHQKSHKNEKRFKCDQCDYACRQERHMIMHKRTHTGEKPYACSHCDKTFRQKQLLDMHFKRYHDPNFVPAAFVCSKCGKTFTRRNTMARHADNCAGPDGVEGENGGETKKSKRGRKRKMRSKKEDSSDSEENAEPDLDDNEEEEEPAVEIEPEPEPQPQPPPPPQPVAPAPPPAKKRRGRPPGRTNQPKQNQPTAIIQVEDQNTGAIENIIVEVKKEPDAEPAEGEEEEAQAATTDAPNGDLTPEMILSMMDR
As to the kind of experiment: co-IP; co-immunoprecipitation (Fig. S7C); bait, antibodies and cells not told in the text shown.

Assay [2] deals with T1, CCCTC-binding factor (CTCF) (mouse (endogenous in mESCs)). In words: co-IP; endogenous biotin-tagged Chd8 mESC lines (Fig. S7E); details not told in the text shown.

CHD4 (from UniProt Q6PDQ2 1-1915): the binding entry in assay [1] is listed as “binds”.
Consider “CHD8, endogenous biotin-tagged (from UniProt Q09XV5 1-2582)”, for which, in assay [2], the binding entry was “no binding”.
With “SMARCA4/BRG1 (from UniProt Q3TKT4 1-1613)”, the binding entry in assay [1] is given as “binds”.
Still for that read-out and setting: to SMARCA5 (from UniProt Q91ZW3 1-1051) belongs “binds”.
